# Results taken from PubChem BioAssay AID1508600 (Functional Genomics Laboratory (NCATS/FGL), 2020).
# In all, about 53,000 sequences went through this assay and about 3,700 (7%) were called active.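 How the source made its calls: active means gene knockdowns whose robust z-score for IL-1 alpha signal is at least 2 or at most -2, so actives lie on both sides; inactive means the rest.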 The list shows a part of the results.
# Assay: Components of the Cytosolic LPS Sensing Pathway: Gene Identification via Genome-wide siRNA Screen;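 further: robust z of the log signal after scaling to non-targeting control siRNA wells of the plate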
# Settings: RAW264.7 macrophages, IL-1a HTRF, actives lie on both sides, screened at 100 nM (by protocol), cells primed 5 h with Pam3CSK4 first
# Outline: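 RAW264.7 mouse macrophages reverse-transfected with single siRNAs (100 nM final) for 48h, primed with Pam3CSK4 for 5 hours, then transfected with LipidA for 24 hour. Supernatant IL-1a read by HTRF; values normalized to negative-control median, log-transformed robust z-scores.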
row,Sequence,z-score
1,GGUUCAAAGCUAUCCACUUTT against Rlbp1,inactive: -0.527
2,CCAUACGAUGACUGAAUUCTT against Olfr1186,inactive: 0.545
3,GCAUAAGGUUUGUGACAUUTT against Wrnip1,inactive: -1.49
4,GGAGCUCCUUUACUGAAGGTT against 3110070M22Rik,inactive: 0.339
5,GGAGUCUUCGAAAAUUGAGTT against Pmfbp1,inactive: -1.73
6,GGAGAUUUUGGUGGCUAUUTT against Uqcrfs1,inactive: -1.1
7,GCAAGCGAUGGCACAUAGATT against Ap1g2,inactive: 1.03
8,GGGACUUUUUUUGAAUCCUTT against Ndrg3,inactive: -0.238
9,GGCGAAGUGUCAUUGUAUUTT against Foxd3,inactive: -0.0201
10,GGAACUCACAACUAUGAGCTT against Pla2g10,inactive: 0.206
11,GGAGCAUCGAUCUUGAUUCTT against Sh3tc2,inactive: 1.79
12,GGUAGUUUGAAAUGCUAACTT against St6gal2,inactive: 1.84
13,GCUUAACAACUACGAGCCCTT against Dot1l,inactive: -0.284
14,GCCAAACUGCGUCUGAAUGTT against Rras,inactive: 0.62
15,GGUGACAAUUCAAAACUCATT against Fgf18,inactive: 0.427
16,GGCAUUUCUUCCAGAUAUUTT against Il1r1,inactive: -0.31
17,GGAGAAAAGAUAUGCUAUGTT against Appl2,inactive: 1.89
18,GGGCAAAGGUCAGUACUUGTT against Col8a2,inactive: 0.386
19,GGAGGUCUACGACCUGAAUTT against Rbfa,inactive: 0.877
20,GGAUAGAUACUGUACUAAUTT against Med21,inactive: 1.24
21,GGGAGAUAGGCAUUUGAUGTT against Arid3a,inactive: -0.3
22,GGUACUAGGCCUGAUCUUGTT against Josd2,inactive: 1.93

row,Sequence,z-score
1,GGGUAGGAGGAAAGUGUUCTT against Olfr1093,inactive: 1.55
2,GGGAUGUUUAUUGUGUUCCTT against Tuba1a,inactive: 1.63
3,CCAUAAAUCACUCAGUUUGTT against Adad1,inactive: 0.222
4,GGUUGCACUACUAAGUGUCTT against Sdr16c5,inactive: -1.08
5,CGCAUAUCAAAACUCAGAATT against Mtm1,inactive: -0.487
6,GGAUGAUAUUGAAAGUCUGTT against Me2,inactive: 0.512
7,GGUCAAGAAGAACAAGCUGTT against Ucn3,inactive: -0.509
8,CGGUUACCACCUCACAUUCTT against Cgnl1,inactive: -0.167
9,GCUUAACCGUUUUUUCAAATT against Tgif1,inactive: 0.764
10,GGCUAUUUGUAUGCUGGAATT against Usp54,inactive: -0.246
11,GGCUACGUAGGACAUGACUTT against Best3,inactive: -1.94
12,GGAACCACAUGACUUCAGCTT against Dynlt1b,inactive: 0.272
13,GAAGACGAACUCUACCAGGTT against Izumo1r,inactive: 1.2
14,CCCUCUCUUUUAUAGAUGATT against Ap3s2,inactive: 1.1
15,GCCGCUCUGUACUUUGUCUTT against Eva1a,inactive: 1.04
16,CCCACCACUUUCCGAAAAUTT against Pacrg,inactive: 0.596
17,GGGUACCAGAUGAUCCAAATT against Prmt6,inactive: -0.233
18,CGAGAUGUACCUUGAUACUTT against Idh3a,inactive: 1.44
19,GGUGCAGAAUAUUGAAUGUTT against Fam185a,inactive: -0.829
20,GGAAUUUAUCAAGGUCAUGTT against Ethe1,inactive: -0.426
21,CCUGCUAAAGGCUUCUCAATT against Elobl,inactive: 0.139
22,CGUUGUUCAAAGAUUCUCCTT against Klrg2,inactive: 0.123

row,Sequence,z-score
1,GGUUUUCUGGUCCAUUAUATT against Olfr741,inactive: -1.86
2,GCUGAAGACACUCUGUGAATT against Ehbp1l1,inactive: -1.7
3,GCCUUGAUUCGCAUAAUGATT against Neurl4,inactive: -1.16
4,GGUUAUUCAUGUGGAAAAGTT against Obp2a,inactive: -0.918
5,GGAGGCUGAGUAUUGGCUUTT against Pi4k2b,inactive: -1.06
6,GCCAACAGUACUUUGUUAATT against Chordc1,inactive: 0.589
7,GGUUAAAAAGAUCCCUUGUTT against Zfp507,inactive: -0.11
8,GGCCUUGAUUCAAUUCAACTT against Tgm6,inactive: 0.812
9,GGCUUGUGGUCAUCUCAUGTT against Olfr282,inactive: 0.208
10,GGACUAUUCACACUAAGUCTT against Them5,inactive: -0.214
11,GGUCCAGAAUCAGAGGAGUTT against Trim10,inactive: 1.12
12,GGAGUUGGAGAAUGACACGTT against Ift88,inactive: 1.14
13,GGACAUGGACAUCCUGAACTT against Slc29a3,inactive: -1
14,GGAUGCACUGAGGAACUCATT against Atg101,inactive: -0.573
15,GGGUAUAUUUGGAACUACGTT against Ppa1,inactive: -1.2
16,CCUCGAUGGUAAUAAAUGUTT against Agtrap,inactive: -1.16
17,GUAUUUUACACUCUUGUGGTT against Olfr898,active: -2.31
18,GGUGCCUCAGAGUAAAUAUTT against Cdk2ap1,inactive: -0.895
19,GGAUACAGCAGUACAAAUGTT against Ces2c,inactive: -0.135
20,GGCAAACACUACGGCAUCATT against Mrpl27,inactive: 0.159
21,GGUAUCAGUACUUUUUGCATT against Ptpn4,inactive: 1.7
22,GCCUCUCAACUUAAUAACATT against Zup1,inactive: -0.697

row,Sequence,z-score
1,CGUUGCUUCUCCAUUGAGCTT against Cdh24,inactive: -0.669
2,GGAAGUGGCCCUUAAAAGGTT against Osbpl3,inactive: 0.522
3,GGAAAAUUACAGAAUUGGATT against Dnali1,inactive: 0.323
4,CCUGCUAGUGGAGAACAUCTT against Trim54,inactive: 0.147
5,GGAGAAUCUGGACAAUGACTT against Dvl3,inactive: -1.48
6,GGUGGAAGUCUUCAGACAGTT against Eif6,inactive: 0.775
7,GCUGGUACGCCCACCAUAUTT against Foxi1,inactive: 0.331
8,GGGACCAUCUUCCUGAUUGTT against Cdh22,inactive: -0.222
9,GCUAUGCUUUUUUGCUACUTT against Olfr972,inactive: 0.773
10,CCAGCAGCCUAAAAGCAGUTT against Ppard,inactive: -1.69
11,CGAGAACCAUAUCUCACUUTT against Ptpn2,inactive: -0.485
12,GGCUCUGAAGACUGUGAUCTT against Tmed3,inactive: 0.359
13,CCCAACUGUCAAAUAAUCCTT against Eddm3b,inactive: 0.0505
14,GGCAUUUAUUAUCAGGCUGTT against Pes1,inactive: 0.665
15,GCAGAGAGAUACAUUAAAGTT against Adam10,inactive: 1.16
16,GGGUCUCUGGCUUCAUUUUTT against Socs1,inactive: -0.494
17,GGAGAAGGGCUUUUCUGUUTT against Gbp5,inactive: -0.729
18,GCAAGAAGAGGUGUGCGUCTT against Inf2,inactive: 1.25
19,GGAACUUCACAGGAACUCUTT against Nol4,inactive: -0.227
20,GGCAGUGAAUUCAACCGCATT against Gtf2f1,inactive: 0.378
21,CGUGCCCAAGAAUGCCCUUTT against Actr5,inactive: 0.595
22,GCAAAAAACAGGGUAACUCTT against Cacna1d,inactive: 0.44

# 2 neighbouring entries already listed, quoted:
row,Sequence,z-score
5,GGAGAAUCUGGACAAUGACTT against Dvl3,inactive: -1.48
6,GGUGGAAGUCUUCAGACAGTT against Eif6,inactive: 0.775

# (listing goes on)

row,Sequence,z-score
1,GGGUCUCGAAGAGAUCAAUTT against Plcxd3,inactive: 1.39
2,GCUCAACAGAUCAUGCCACTT against Tapbpl,inactive: 0.496
3,GGUUCAUGUGUGCACAGCUTT against Ehd1,inactive: -1.39
4,CCAACACAUGUGGAGAGUUTT against Dars2,inactive: 0.729
5,GGCCUGCCUGAAAAAAAAATT against Map1lc3a,inactive: 0.683
6,CCUAAGGCAAUCCCUAUUGTT against Gprasp1,inactive: -0.424
7,CCAUACCUAAAUCUGCAUUTT against Celf5,inactive: 0.515
8,GGAAAGUGUUUUCUCAUGATT against Klf9,inactive: -0.23
9,CCGUAUCCAUUCUGAACGUTT against Zbtb8a,inactive: 0.799
10,GCUCAUGAGUAGCUUAGUUTT against Mtch2,inactive: 0.56
11,GGUGAAAAACCCUAUAGUUTT against Zfp595,inactive: -1.44
12,GGAUACCAUGGUCGUCUGATT against Gpatch2l,inactive: -0.277
13,GGGCAUUGAAGCAAAUAUATT against Tmprss15,inactive: 0.323
14,GGAUUGAAAGCUACUCGUGTT against Maf1,inactive: 0.533
15,CCUCUACACUUUAGAUGGUTT against Rack1,inactive: -0.0311
16,GGCCUACAGGACAAAGUUUTT against Comt,inactive: 0.394
17,CCUAUAAAGCUCUAAAGGATT against Caprin1,inactive: 0.115
18,CGGCACCUACUUCAUCUAUTT against Eda,inactive: 0.0252
19,GGAAACCAGUUGCUUAAGUTT against Erich2,inactive: -0.692

# Retrieved one by one from the entries so far, 5 records:
row,Sequence,z-score
17,CCUAUAAAGCUCUAAAGGATT against Caprin1,inactive: 0.115
3,GGUUCAUGUGUGCACAGCUTT against Ehd1,inactive: -1.39
16,GGCCUACAGGACAAAGUUUTT against Comt,inactive: 0.394
7,CCAUACCUAAAUCUGCAUUTT against Celf5,inactive: 0.515
8,GGAAAGUGUUUUCUCAUGATT against Klf9,inactive: -0.23
